This passage reports binding results from PMC10079970.

Chains of the proteins cited; added tags and fusions are not shown. Residues count along the entry.
UniProt P11142: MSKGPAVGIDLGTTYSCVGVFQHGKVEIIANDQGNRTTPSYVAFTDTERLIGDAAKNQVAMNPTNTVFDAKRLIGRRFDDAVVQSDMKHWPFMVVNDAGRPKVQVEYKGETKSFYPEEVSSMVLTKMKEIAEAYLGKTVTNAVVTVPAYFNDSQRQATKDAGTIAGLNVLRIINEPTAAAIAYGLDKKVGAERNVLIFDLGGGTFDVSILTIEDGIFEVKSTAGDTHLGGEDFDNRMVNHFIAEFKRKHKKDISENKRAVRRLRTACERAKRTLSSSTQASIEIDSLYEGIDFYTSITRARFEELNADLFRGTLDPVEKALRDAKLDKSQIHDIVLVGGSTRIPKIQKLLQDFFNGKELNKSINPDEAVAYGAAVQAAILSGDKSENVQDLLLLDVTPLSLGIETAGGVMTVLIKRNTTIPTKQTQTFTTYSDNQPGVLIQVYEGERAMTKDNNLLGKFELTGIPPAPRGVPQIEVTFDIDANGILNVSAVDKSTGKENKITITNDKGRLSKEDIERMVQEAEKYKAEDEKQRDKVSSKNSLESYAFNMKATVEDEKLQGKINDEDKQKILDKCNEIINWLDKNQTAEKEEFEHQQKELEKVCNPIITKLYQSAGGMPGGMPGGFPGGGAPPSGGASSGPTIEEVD
UniProt P10809, residues 27-573: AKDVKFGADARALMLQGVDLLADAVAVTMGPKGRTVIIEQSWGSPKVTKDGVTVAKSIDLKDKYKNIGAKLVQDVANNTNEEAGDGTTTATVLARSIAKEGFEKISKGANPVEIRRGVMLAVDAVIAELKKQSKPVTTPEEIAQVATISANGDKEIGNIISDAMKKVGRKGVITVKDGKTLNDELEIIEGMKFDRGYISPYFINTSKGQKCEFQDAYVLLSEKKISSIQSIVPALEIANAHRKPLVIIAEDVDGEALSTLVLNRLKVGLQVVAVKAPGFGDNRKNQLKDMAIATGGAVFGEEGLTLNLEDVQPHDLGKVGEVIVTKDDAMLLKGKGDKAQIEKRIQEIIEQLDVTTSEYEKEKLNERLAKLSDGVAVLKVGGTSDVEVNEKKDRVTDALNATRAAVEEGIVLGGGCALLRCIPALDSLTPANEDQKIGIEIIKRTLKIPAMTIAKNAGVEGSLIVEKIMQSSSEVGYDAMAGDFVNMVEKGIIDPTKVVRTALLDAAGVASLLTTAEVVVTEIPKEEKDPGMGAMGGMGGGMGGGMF
UniProt O95299, residues 36-355: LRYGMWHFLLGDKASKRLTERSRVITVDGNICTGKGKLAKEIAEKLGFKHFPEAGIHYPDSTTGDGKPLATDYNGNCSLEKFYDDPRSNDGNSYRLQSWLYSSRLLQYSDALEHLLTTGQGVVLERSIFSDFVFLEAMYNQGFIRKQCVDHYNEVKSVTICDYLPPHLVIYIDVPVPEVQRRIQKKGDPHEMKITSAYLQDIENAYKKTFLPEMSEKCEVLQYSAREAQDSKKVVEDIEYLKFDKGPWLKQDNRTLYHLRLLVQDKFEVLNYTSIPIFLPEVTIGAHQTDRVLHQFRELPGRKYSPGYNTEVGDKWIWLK

In assay [1] the target is T1, V5-FLAG-tagged wild-type β-glucocerebrosidase (GCase) (human) (UniProt P04062).
T1 sequence: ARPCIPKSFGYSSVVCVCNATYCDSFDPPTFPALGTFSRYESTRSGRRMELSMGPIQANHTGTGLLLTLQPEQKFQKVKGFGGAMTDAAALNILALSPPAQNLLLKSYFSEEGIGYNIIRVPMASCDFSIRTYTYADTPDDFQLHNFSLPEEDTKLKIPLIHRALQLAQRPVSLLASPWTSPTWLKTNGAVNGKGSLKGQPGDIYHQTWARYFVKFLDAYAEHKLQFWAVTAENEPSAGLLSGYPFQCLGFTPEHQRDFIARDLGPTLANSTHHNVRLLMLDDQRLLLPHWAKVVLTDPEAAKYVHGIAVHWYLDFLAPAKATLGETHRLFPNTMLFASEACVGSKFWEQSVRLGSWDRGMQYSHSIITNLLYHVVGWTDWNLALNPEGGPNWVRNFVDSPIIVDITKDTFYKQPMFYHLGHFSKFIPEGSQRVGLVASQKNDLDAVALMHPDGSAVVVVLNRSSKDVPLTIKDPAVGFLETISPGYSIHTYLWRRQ
The assay is described as follows: co-IP; anti-FLAG M2 agarose IP of V5-FLAG-GCase from T-Rex HEK lysate (1x TBS pH 7.4, 0.5% NP40), 2 h at 4 °C, FLAG peptide elution, western blot; also after shRNA knock-down of HSC70 or TIM23 (L444P-GCase with LONP1 significantly decreased).

The target in assay [2] is T2, V5-FLAG-tagged L444P β-glucocerebrosidase (GCase) (human) (UniProt P04062).
T2 sequence: T1 sequence with L444P
The description is as above.

Assay [3] has as its target T3, V5-FLAG-tagged E326K β-glucocerebrosidase (GCase) (human) (UniProt P04062).
T3 sequence: T1 sequence with E326K
The description is as above.

Assay [4] deals with T4, endogenous L444P β-glucocerebrosidase (GCase) of L444P/L444P NPCs (human (endogenous in iPSC-derived NPCs)) (UniProt P04062).
T4 sequence: T1 sequence with L444P
Description: co-IP; endogenous GCase precipitated with GBA MaxPab polyclonal rabbit antibody cross-linked (DSS) to protein A/G magnetic beads, 7 mg NPC lysate overnight, elution at pH 2.0, western blot; normal rabbit IgG as control.

For assay [5], the target named is T5, endogenous β-glucocerebrosidase (GCase) of gene-corrected isogenic control NPCs (human (endogenous in iPSC-derived NPCs)) (UniProt P04062).
T5 sequence: T1 sequence
The assay is described as above.

Substitutions are numbered along the chain they refer to. No constants are given. Whether binding was seen depends on the method and setting. Binding seen in cells or lysates may run through a third protein. Some entries that bind do so weakly or less than the wild type. Where a sequence is shown, tags or fusion partners need not be part of it.

As to ATP5B (from UniProt P06576 48-529), the binding entry in assay [1] is listed as “binds”.
Take HSC70 (from UniProt P11142 1-646): the binding result in assay [2], in assay [1] and in assay [3] was “binds” in each case.
For the substance “HSP60 (endogenous in NPCs) (from UniProt P10809 27-573)”, the binding result in assay [4] and in assay [5] was “binds” each time.
Take HSP60 (from UniProt P10809 27-573): the binding entry in assay [2], in assay [1] and in assay [3] was “binds” throughout.
With NDUFA10 (from UniProt O95299 36-355), the binding entry in assay [2], in assay [1] and in assay [3] was “binds” throughout.
